Measured values published in PubChem BioAssay AID1671190 (National Center for Advancing Translational Sciences (NCATS), 2021).
Values joined by “and” are separate entries in the source; they are usually repeats but may differ in a detail not shown here. Equal entries are not always repeated. In all, about 580,000 compounds went through this assay and about 6,100 (1.1%) were called active. Inconclusive results, whose numbers are uncertain, are shown with a selection of clear calls. Calls follow the shape of the dose curve; as a rule, active = well fitted inhibition curve with a large enough effect; inconclusive = small, poorly fitted or top-dose-only effect, or another doubt; inactive = no such curve, though single readings can be large or run the other way. A potency beside an inconclusive call is a rough fit, not a confirmed value.

Sequences of proteins named here, by UniProt entry; tags and fusion partners are left off. A change or cut given only in a name is not applied to a line headed by its entry.
UniProt P18054: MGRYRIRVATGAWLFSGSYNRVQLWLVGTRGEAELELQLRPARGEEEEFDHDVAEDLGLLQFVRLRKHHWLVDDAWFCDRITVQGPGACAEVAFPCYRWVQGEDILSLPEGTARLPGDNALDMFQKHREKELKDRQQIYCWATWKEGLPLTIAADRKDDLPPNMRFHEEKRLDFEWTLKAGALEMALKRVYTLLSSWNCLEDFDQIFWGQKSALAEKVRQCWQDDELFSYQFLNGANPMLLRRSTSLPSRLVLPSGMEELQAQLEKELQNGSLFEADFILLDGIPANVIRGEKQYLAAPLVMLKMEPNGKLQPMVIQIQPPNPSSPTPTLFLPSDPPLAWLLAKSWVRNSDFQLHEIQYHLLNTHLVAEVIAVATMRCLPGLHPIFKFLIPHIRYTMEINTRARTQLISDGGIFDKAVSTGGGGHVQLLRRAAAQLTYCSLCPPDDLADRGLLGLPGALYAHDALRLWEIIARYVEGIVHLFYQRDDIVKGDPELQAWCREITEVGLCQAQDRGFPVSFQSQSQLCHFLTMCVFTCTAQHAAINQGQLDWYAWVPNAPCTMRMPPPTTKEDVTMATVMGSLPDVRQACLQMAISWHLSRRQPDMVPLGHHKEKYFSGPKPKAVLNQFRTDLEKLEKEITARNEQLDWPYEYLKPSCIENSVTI

target: Polyunsaturated fatty acid lipoxygenase ALOX12 (Homo sapiens) (UniProt P18054); assay: Primary qHTS assay for inhibitors of human arachidonate 12S-lipoxygenase (ALOX12): Round 2; details: purified 12hLO, xylenol orange hydroperoxide absorbance; activity change, negative = inhibition: at 108 µM (top of the series) unless noted
How it was run: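 Purified human 12hLO at 150 nM in 25 mM Hepes, 0.01% Triton X-100, pH 7.0, preincubated 15 min at room temperature with compound. Reaction started with 40 uM arachidonic acid, 30 min at room temperature. Hydroperoxide measured by Fe-xylenol orange, 573/405 nm absorbance ratio.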
% is scaled to controls: 0 for no effect and ±100 for the full control effect; potency is read from the fitted curve at half-maximal effect.

| SMILES | activity change, negative = inhibition | Potency |
| --- | --- | --- |
| CC1=C(C(=O)OC(C)C)C(c2cccnc2)C2=C(CCCC2=O)N1 (stereo not drawn) | inactive: -1.16% |  |
| C=CCn1c(O)c(N=Nc2nc3ccccc3c(=O)n2-c2ccccc2)c2ccccc21 | inactive: 8.59% |  |
| COc1ccc2c(c1)c(CC(=O)Nc1cc(C)cc(C)c1)c(C)n2C(=O)c1ccc(Cl)cc1 |  | inconclusive: 5.01 µM [inhibitor, full curve, poor fit] |
| CCOc1cc(S(=O)(=O)NCCc2c(C)[nH]c3ccc(C)cc23)ccc1F |  | inconclusive: 56.2 µM [inhibitor, partial curve, poor fit] |
| C/C(=N\Nc1nc(C)c(C)s1)c1ccc([N+](=O)[O-])cc1 |  | inconclusive: 56.2 µM [inhibitor, partial curve, poor fit] |
| COC(=O)c1ccc(NC(=S)NCCc2ccccc2)cc1 |  | inconclusive: 89.1 µM [inhibitor, partial curve, poor fit] |
| CCS(=O)(=O)N1CCN(CC2CC3C=CC2C3)CC1 (stereo not drawn) |  | inconclusive: 0.631 µM [inhibitor, full curve, poor fit] |
| Cc1ccn2c(C=O)c(-c3ccc(F)cc3)c(C=O)c2c1 |  | inconclusive: 50.1 µM [inhibitor, single point] |
| CCN1CCN(Cc2cc(=O)oc3ccc(Cl)cc23)CC1 |  | inconclusive: 4.47 µM [inhibitor, full curve, poor fit] |
| O=C(c1cc2cn(C3CC3)cc2s1)N1CCc2ccccc2C1 |  | inconclusive: 3.16 µM [inhibitor, full curve, poor fit] |
| Clc1ccc(OCCN2CCOCC2)cc1 | inactive: 46.7% |  |
| Cc1ccc(C)c(OCc2cc(C(=O)N3CCN(C(=O)c4ccco4)CC3)no2)c1 | inactive: -6.9% |  |
| CCn1c(-c2cc(Br)ccc2O)n[nH]c1=S |  | active: 44.7 µM |
| c1ccc(-c2nc(NCc3cccnc3)c3oc4ccccc4c3n2)cc1 |  | active: 15.8 µM |
| O=C1c2cccc3c(O)ccc(c23)C(=O)N1c1ccc(Cl)cc1 |  | inconclusive: 89.1 µM [inhibitor, partial curve, poor fit] |
| N#CC1=C(N)C(C#N)(C#N)[C@H](c2c(F)cccc2F)[C@H]2CC3(CC=C12)OCCO3 | inactive: -21.7% |  |
| CC(=O)Nc1ccc(N2CCC(C)CC2)c([N+](=O)[O-])c1 | inactive: -20.6% |  |
| CN(C)c1nc(NCc2ccccc2)nc(N/N=C/c2cccc(Br)c2)n1 | inactive: -17.1% |  |
| C=CCCC(=O)N1C[C@H]2CON(C)[C@H]2C[C@H]1c1cccc(Nc2ccccc2)c1 |  | inconclusive: 89.1 µM [inhibitor, single point] |
| Cc1cc(C)c2oc(C(=O)Nc3ccc(S(=O)(=O)Nc4ncccn4)cc3)cc(=O)c2c1 |  | inactive and inconclusive: 89.1 µM [inhibitor, partial curve, poor fit] |
| O=S(=O)(Cc1ccccc1Cl)N1CCCc2ccccc21 | inactive: -3.23% |  |
| Fc1ccc(-c2[nH]ncc2CNCc2cccc(Cn3cccn3)c2)cc1 |  | active: 17.8 µM |
| CCC[C@@H](CN[C@@H](CNC)C(C)C)NCCCCc1ccccc1 | inactive: 16.9% |  |

Among those listed so far, two have a nitro group on carbon:

| SMILES | activity change, negative = inhibition | Potency |
| --- | --- | --- |
| C/C(=N\Nc1nc(C)c(C)s1)c1ccc([N+](=O)[O-])cc1 |  | inconclusive: 56.2 µM [inhibitor, partial curve, poor fit] |
| CC(=O)Nc1ccc(N2CCC(C)CC2)c([N+](=O)[O-])c1 | inactive: -20.6% |  |

Following part:

| SMILES | activity change, negative = inhibition | Potency |
| --- | --- | --- |
| CC1(C)Oc2ccc3ccc(=O)oc3c2C(N2CCCCC2)C1O (stereo not drawn) | inconclusive: -36.4% [inhibitor] |  |
| COc1cc(/C=C2\Oc3cc(OC(=O)C(C)(C)C)ccc3C2=O)cc(OC)c1OC |  | inconclusive: 89.1 µM [inhibitor, single point] |
| O=C(c1ccccn1)N1CCC(N2CCOC2=O)CC1 | inactive: 0.515% [at 12.5 µM] |  |
| CC(=O)CC1(C(C#N)C#N)C(=O)Nc2ccccc21 (stereo not drawn) | inactive: -22.2% |  |
| O=C(NC(=S)NCC1CCCO1)c1cccs1 (stereo not drawn) | inactive: -29.4% |  |
| Cc1cnc(C(=O)OCC(=O)c2cccc3ccccc23)cn1 |  | inconclusive: 39.8 µM [inhibitor, partial curve, poor fit] |
| CC(C)CCN1CCC2(CC1)CC(=O)N(c1ccccc1)c1ccccc1O2 |  | inconclusive: 79.4 µM [inhibitor, single point] |
| CCCc1nnc(NC(=O)Cn2c(=O)oc3cc(Br)ccc32)s1 |  | inconclusive: 50.1 µM [inhibitor, partial curve, poor fit] |
| Cn1c(=O)c2c(nc(NCCOc3ccc(F)cc3)n2C)n(C)c1=O |  | inconclusive: 112 µM [inhibitor, partial curve, poor fit] |
| Cc1cc2cc(CNC(=S)NC3CCCCC3)ccc2n1C |  | inconclusive: 28.2 µM [inhibitor, partial curve, poor fit] |
| COc1ccc(-c2cc(OC(=O)c3ccccc3Cl)c3c(C)oc(C)c3c(=O)c2)cc1OC |  | inconclusive: 100 µM [inhibitor, partial curve, poor fit] |
| O=C(O)c1nc(NCc2ccccc2)ncc1Cl | inactive: 0% |  |
| CC[C@H]1O[C@]2(CC[C@@H]1C)C[C@@H]1C[C@@H](C/C=C(\C)C[C@@H](C)/C=C/C=C3\CO[C@@H]4[C@H](O)C(C)=C[C@@H](C(=O)O1)[C@]34O)O2 |  | inconclusive: 112 µM [inhibitor, single point] |
| COc1cccc(/C=N/Nc2ccccc2C(=O)O)c1O |  | inconclusive: 100 µM [inhibitor, partial curve, poor fit] |
| Cc1ccccc1NS(=O)(=O)c1ccc(C(=O)NCC2CCCO2)cc1 (stereo not drawn) |  | inconclusive: 3.98 µM [inhibitor, full curve, poor fit] |
| Cc1cc(-c2ccncc2)n2ncc(-c3ccccc3)c2n1 |  | inconclusive: 112 µM [inhibitor, single point] |
| Cc1nnc(N/N=C/c2ccccc2O)n1N | inactive: 48.1% |  |
| CCCC(=O)Nc1cccc(NC(=S)NC(=O)C(C)Oc2ccc(Cl)cc2Cl)c1 (stereo not drawn) |  | inconclusive: 44.7 µM [inhibitor, partial curve] |
| C=CC[n+]1c(-c2ccc(Cl)cc2Cl)csc1Nc1ccc(NC(C)=O)cc1 |  | inconclusive: 12.6 µM [inhibitor, partial curve, poor fit] |
| CNC(=O)c1c(NC(=O)c2ccc3ncsc3c2)sc(C)c1C |  | inconclusive: 56.2 µM [inhibitor, partial curve, poor fit] |
| Cc1cc(OCCN(C)C)c(C)c2c1CC[C@@H]([C@H](C)C(=O)NCc1cccs1)C2 |  | inconclusive: 35.5 µM [inhibitor, full curve, poor fit] |
| COc1ccc(CN2CCN(Cc3ccc(OCc4ccncc4)cc3)CC2)cc1 |  | inconclusive: 89.1 µM [inhibitor, single point] |
| O=C(NCCc1ccccc1)c1ccc(-c2ccccc2C(F)(F)F)o1 |  | inconclusive: 50.1 µM [inhibitor, partial curve, poor fit] |

| SMILES | activity change, negative = inhibition | Potency |
| --- | --- | --- |
| O=C(CC[C@H]1NC(=O)c2ccccc2NC1=O)NCCc1ccccn1 | inactive: 109% |  |
| CC(C)(C)c1cc(SCc2ccc(C#N)cc2)cc(C(C)(C)C)c1O |  | inconclusive: 126 µM [inhibitor, partial curve, poor fit] |
| O=c1oc2ccccc2cc1C1=Nn2c(nnc2-c2cccnc2)SC1 |  | inconclusive: 35.5 µM [inhibitor, partial curve, poor fit] |
| C[C@@H]1CN([C@H](C)CO)C(=O)CCCn2nncc2CO[C@@H]1CN(C)C(=O)Nc1ccc(N2CCCCC2)cc1 |  | inconclusive: 35.5 µM [inhibitor, single point] |
| CSc1ccc(CN2CCN(Cc3ccncc3)CC2)cc1 |  | inconclusive: 4.47 µM [inhibitor, full curve, poor fit] |
| CSc1ccc2cc(CN3CCCC(O)C3)c(-c3ccc(Cl)cc3)nc2c1 (stereo not drawn) |  | inconclusive: 44.7 µM [inhibitor, full curve, poor fit] |
| CCCN(CC1CC1)C(=S)NC(=O)c1cc(Br)ccc1Cl |  | inconclusive: 56.2 µM [inhibitor, partial curve, poor fit] |
| Clc1ccc(NC2(c3nnnn3-c3ccccc3)CCCC2)cc1 |  | inconclusive: 28.2 µM [inhibitor, partial curve] |
| CCCn1c(=O)n(CC(=O)Nc2c(C)cccc2C)c(=O)c2c1nc(C)n2CCOC | inactive: 16.2% |  |
| O=C(Nc1cccc(C(=O)OCc2cc(=O)n3c4c(sc3n2)CCCC4)c1)c1ccc(Cl)cc1 |  | inconclusive: 70.8 µM [inhibitor, partial curve, poor fit] |
| CCOC(=O)c1c(C)oc2ccc(O)c(CN3CCCCC3)c12 | inactive: -11.9% |  |
| CN(C)CCCN1C(c2ccccc2)=CC(=C(C#N)C#N)C2=C1CCCC2 | inconclusive: -30.9% [inhibitor] |  |
| CCCSc1oc(-c2cccs2)nc1S(=O)(=O)c1ccc(C)cc1 | inactive: 5.85% |  |
| CC(c1cccs1)N(C)Cc1ccccc1 (stereo not drawn) | inactive: 41.3% [at 365 µM] |  |
| CCc1nccn1CCNC(=O)c1cccc(C2CCNC2)c1 (stereo not drawn) | inactive: 5.63% |  |
| CCS(=O)(=O)N1CCC2(CCC(=O)N(CC3CC3)CC2)CC1 |  | inconclusive: 28.2 µM [inhibitor, full curve, poor fit] |
| CCCCn1nnnc1C1(C)CCC(=O)N1Cc1cccc(F)c1 (stereo not drawn) |  | inconclusive: 50.1 µM [inhibitor, partial curve, poor fit] |
| CCc1ccc(C(=O)N(Cc2ccncc2)C2CC2)s1 | inactive: -9.76% |  |
| COc1ccc(C(C)=O)cc1COC(=O)C1(c2cccc(F)c2)CCCC1 |  | inconclusive: 89.1 µM [inhibitor, single point] |
| CCOC(=O)C1Nc2ccc(OC(F)(F)F)cc2C2C=CCC12 (stereo not drawn) |  | inconclusive: 39.8 µM [inhibitor, partial curve] |
| CCN1CCC(N(Cc2ccc3c(c2)OCO3)C(=O)Nc2cccc(C)c2C)CC1 |  | inconclusive: 56.2 µM [inhibitor, partial curve, poor fit] |
| CCOC(=O)C1=Nc2cccc3c(O)ccc1c23 |  | inconclusive: 112 µM [inhibitor, single point] |
